Assay results published in the supplement of paper PMC12764529.
± gives the half width of the 95% confidence interval. For many entries, trypsin and chymotrypsin gave values far apart.

Assays:
[1] = folding stability dG unfold from chymotrypsin proteolysis; higher = more stable
Description: (§1)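 Folding stability of de novo designed mini-proteins (<80 aa, no Cys; designed by TrROS, TrMRF, ProteinMPNN and the joint model) was measured by cDNA display proteolysis with trypsin and chymotrypsin. Each protease was used at 11 concentrations in a threefold dilution series plus a no-protease condition. K50 was inferred by Bayesian fitting of sequencing counts, and dG unfold was derived against a sequence-predicted unfolded-state K50 (Tsuboyama et al. method). Sequences shown include variable-length N-terminal GS-type padding (SAGGSAGG...) inside a display construct carrying a PA tag. Rows were kept only if the AF2 dimer inter-PAE was >15, to exclude likely homo-oligomers.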

[2] = folding stability dG unfold (combined trypsin and chymotrypsin); higher = more stable
Description: as §1

Sequence | folding stability dG unfold [1] | folding stability dG unfold [2]
SMKTVELKIVIPGMTEEELKKLVEKLKELGNVEVTIEYDEETKEVVITVKVNVTPEQEEALKKALEEALKSA [r9_652_TrROS_Hall] | 2.22 ± 0.21 kcal/mol | 3.26 ± 0.63 kcal/mol
SAGGSAGGSAGGSPNRQERDIPLNDGKIKIEVDPDNAHVEFPNGGEKTMPPEDLEEALQSAGGSAGGSAGGS [r4_242_TrROS] | 1.12 ± 0.058 kcal/mol | 0.551 ± 0.09 kcal/mol
SAGGVDISPDETVEYEHPTAKITITRLPDGSLLVTVTDPATGEPITLPFPGGESIEEIIEKVKEALESAGGS [r8_158_JUSTAS] | 2.91 ± 0.18 kcal/mol | 
SAGGSAGGSMTRTAKYESPEEAREDALAALPPGWSVTVTVSEGEGKLRFTITVTPPPADPAAASAGGSAGGS [r12_195_JUSTAS] | 1.93 ± 0.059 kcal/mol | 1.34 ± 0.13 kcal/mol
SAGGSAGGSAGGSKVLVIDLPDGTKIAFVPETGKVFIFPKGGEKKEFPNLTLADLLKARSAGGSAGGSAGGS [r10_569_TrMRF] | 1.95 ± 0.12 kcal/mol | 1.12 ± 0.23 kcal/mol
SAGGSAGGSAGGSNPFDPNAPAVTTTTVPKVIKTPTALVETTVTVTETPGGTTVTTTPISAGGSAGGSAGGS [r4_145_JUSTAS] | 1.5 ± 0.039 kcal/mol | 0.992 ± 0.083 kcal/mol
SAGGSAGGSDVIEVDFPDGVSIHMHPENDMVEVENPDNNKKRVIHPGKSPEEALDYIANGEPISAGGSAGGS [r12_832_TrROS] | 1.04 ± 0.057 kcal/mol | 0.433 ± 0.27 kcal/mol
SAGGSAGGELLTAEELRALHPDLRIEVRRVRVEREYRLPDVPGRRVREEREVLVVRVVPRDALESAGGSAGG [r6_659_TrROS_Hall] | 1.2 ± 0.26 kcal/mol | 0.647 ± 0.34 kcal/mol
SAGGSAGGSAGGDPNLEAELVATATYTNPLTGKTVTLNVLRVTRSEDGTSAPVVFLEDLSAGGSAGGSAGGS [r10_535_TrMRF] | 1.22 ± 0.21 kcal/mol | 0.728 ± 0.24 kcal/mol
SPLRALTPEQLIERARFLVRQLRRAREAGRPEELPRLVAELARLVAEAPGPQRGAIRELLEELDIPPGLLSA [r9_182_TrMRF] | 1.9 ± 0.074 kcal/mol | 1.24 ± 0.049 kcal/mol
SAGGSAGGSAGGPVVTVEPPGGELKTLAVPPSHPAVLEELLASGGRVTVLDPETGEAFDVSAGGSAGGSAGG [r7_430_TrMRF] | 1.02 ± 0.055 kcal/mol | 0.164 ± 0.14 kcal/mol
SSSIPRTRVEEDPEKKTTTTTEVTTTPLPNGTYETTTTTTTTTFSPSGGSTVTTTTTTTTHPSPSVPGLGSA [r9_305_JUSTAS] | 1.24 ± 0.044 kcal/mol | 0.769 ± 0.099 kcal/mol
SAGGGMKVTVTVPVPNDPQEAEALRAALEAEVGGAVEVTVEPGRNTATFTVDEAVLPVLRARGLPVAPSAGG [r13_156_JUSTAS] | 1.06 ± 0.072 kcal/mol | 0.48 ± 0.22 kcal/mol
SAGPAAAVPELRELTLHLPVPGLPLPVVAALVAEELGWEVTSVEEGDDVFVFTVPDGVPIRVHLGVPGLSAG [r5_350_TrMRF] | 1.39 ± 0.081 kcal/mol | 0.849 ± 0.065 kcal/mol
SAGSYLVEVTLTFPDGTVRRLTVRTTSADPEEARAAAEAAVAAEIAAAGVPVASVAVRLEPVPPDRLESAGG [r19_335_JUSTAS] | 3.217 ± 0.011 kcal/mol | 2.87 ± 0.039 kcal/mol
SAGGSAGGAVSPEMQALAEAVRAALRAAFPDLPLEIRVVEITRFPDGSVTITVRVGDEELEVPVSAGGSAGG [r6_495_JUSTAS] | 2.487 ± 0.017 kcal/mol | 2.15 ± 0.042 kcal/mol
SAALSLSPEEVAAAAAALAARGDVTVERREEAVTLEPPNGGSLPLGRVVLDVTDPAAGRPLAAEVAALASAG [r14_628_JUSTAS] | 1.34 ± 0.11 kcal/mol | 0.803 ± 0.085 kcal/mol
SAGAPPPVRIEVRRERLPDRSLRLHAEVRLPDGRLLAEVEAPLDVPDDPEAVTRFLRAVAALAEALAASAGG [r19_13_TrMRF] | 3.3 ± 0.035 kcal/mol | 2.85 ± 0.076 kcal/mol
SAGGSAGGSAGALPPGAKVRVVRLRDTAPEVREFTIPDEVPSVGAVLDAFPDVVAVELEGSAGGSAGGSAGG [r11_157_TrMRF] | 1.62 ± 0.078 kcal/mol | 1.01 ± 0.13 kcal/mol
SAGGSAGGSAGGSVLFDSEEEAEAALKAAGLELSSVTKTEEDGEPKVLVPVARRPPPALASAGGSAGGSAGG [r11_141_JUSTAS] | 1.44 ± 0.033 kcal/mol | 0.959 ± 0.086 kcal/mol
SAGGSAGGSAGGGMTVTEEEAPDGTRVRTVTRPPEPVTTVVTLAPDGSETVTTIPVVPASAGGSAGGSAGGS [r10_595_JUSTAS] | 1.3 ± 0.024 kcal/mol | 0.789 ± 0.064 kcal/mol
SAGGSAGGSAGMKKYLVTVTPPDGTTTTVTVPDDPAAAIAAARAAFPGATVTVTPLTEPASAGGSAGGSAGG [r11_850_JUSTAS] | 1.4 ± 0.022 kcal/mol | 0.937 ± 0.037 kcal/mol
SAGGSAGGSAGGAGPDDTVTIVRVNATPRLDANGNAVDPTADSVEVITVPADNIDDLLNNSAGGSAGGSAGG [r7_439_TrMRF] | 1.04 ± 0.042 kcal/mol | 0.462 ± 0.085 kcal/mol
SAGGSAGGSAGGEVLELPNELVLVEKLPENPDVVRVTTITLPPGGTVATQVTLDPVPPELSAGGSAGGSAGG [r17_184_JUSTAS] | 1.16 ± 0.04 kcal/mol | 0.771 ± 0.091 kcal/mol

2 entries from above in a different format.

| Sequence | folding stability dG unfold [1] | folding stability dG unfold [2] |
| --- | --- | --- |
| SAALSLSPEEVAAAAAALAARGDVTVERREEAVTLEPPNGGSLPLGRVVLDVTDPAAGRPLAAEVAALASAG [r14_628_JUSTAS] | 1.34 ± 0.11 kcal/mol | 0.803 ± 0.085 kcal/mol |
| SAGGSAGGSAGGAGPDDTVTIVRVNATPRLDANGNAVDPTADSVEVITVPADNIDDLLNNSAGGSAGGSAGG [r7_439_TrMRF] | 1.04 ± 0.042 kcal/mol | 0.462 ± 0.085 kcal/mol |

The list goes on.

Sequence | folding stability dG unfold [1] | folding stability dG unfold [2]
SAGGSAGGSAGGGELAKEAAEKARELGLGPDTEIEIFDPETGELVRVRILPETGGFEVEPSAGGSAGGSAGG [r7_301_TrMRF] | 1.64 ± 0.067 kcal/mol | 1.17 ± 0.094 kcal/mol
SETITLTLTIKVNGKTVKIELTIEKNEDGSYTLTVKIEVTNENGEKKEITITLEVPNMSLEEILKKLLESSA [r9_217_TrROS_Hall] |  | > 6 kcal/mol
SAGGSAGGSAGGSSVKTTPEKVPDSTSVTTSELPSGERRVTTKDASGTPSTTTLPPDLTSAGGSAGGSAGGS [r4_120_JUSTAS] | 1.59 ± 0.039 kcal/mol | 1.03 ± 0.11 kcal/mol
SAGGSAGGSAGGDPLLPLEGVLARVTSVEVEGAFLEPDGRLLGTVRVTVTFVELAPPDNPSAGGSAGGSAGG [r7_614_TrMRF] | 2.48 ± 0.052 kcal/mol | 2.04 ± 0.074 kcal/mol
SAGGSAGGGAIEEALRELREQAPPGQTLRVRVFNKETGEETEIEVPVEDLEKLEGVERIEVERESAGGSAGG [r6_401_TrROS_Hall] | 1.23 ± 0.27 kcal/mol | 0.788 ± 0.22 kcal/mol
SAGGSAGGSAGGMPELEVELLAVEPLPGQIRALFRVPDTDALLLATVDPETGEIRVEVGTSAGGSAGGSAGG [r7_163_TrMRF] | 1.47 ± 0.067 kcal/mol | 0.635 ± 0.1 kcal/mol
SAGGSAGGSAGGSPETLVERTITVPTTNATGTVTEVVTVPVTARTEEEAEALAAELAAASAGGSAGGSAGGS [r10_57_JUSTAS] | 1.11 ± 0.02 kcal/mol | 0.558 ± 0.072 kcal/mol
SAGGEVEVRVEVRVEARPLPDGRVRVEVRVEVRLLRPPPRPVTPRDLLAAILRLLDPEIRPDDPRAILSAGG [r13_136_TrMRF] | 2.29 ± 0.058 kcal/mol | 1.79 ± 0.13 kcal/mol
SAGGSAGGSAAPPGVEVEVRVARLPGPGYLAVALLRVEGRPFLAVALYDAPPGRPLAVAVFASAGGSAGGSA [r18_459_TrMRF] | 4.25 ± 0.059 kcal/mol | 3.75 ± 0.23 kcal/mol
SAGGSAGGSAASPGEVVTETVTTTETDPPSPTVRTVVTRLVRRPDGTVLERRPVSVTTDPAAASAGGSAGGS [r12_504_JUSTAS] | 1.16 ± 0.13 kcal/mol | 0.513 ± 0.19 kcal/mol
SAGGSAGGSAGGAIVVNPAGNTARVVLPNGEVKTLPAEKAAEAQKELGLPDVPIFVNPGASAGGSAGGSAGG [r7_235_TrMRF] | 1.14 ± 0.067 kcal/mol | 0.68 ± 0.15 kcal/mol
SAGGSAGGSASSSPIGTSESSLPNGIRITTTTYSNSGSLTTVTTVEIPPLTEEERAAVLAASAGGSAGGSAG [r3_158_JUSTAS] | 1.11 ± 0.15 kcal/mol | 0.394 ± 0.25 kcal/mol
SAGGSAGGSAGGMLLVFEDGKVYPFEDLEDVEEAVKTIRTPLGRPDAKIEIYDLPPELIPSAGGSAGGSAGG [r7_839_TrMRF] | 1.23 ± 0.062 kcal/mol | 0.718 ± 0.14 kcal/mol
SAGGSAGGSAGGWRRLRLTLTDPAVDNVERELTLLLPIPLPPAPRPFPVTDADGNTGPVGSAGGSAGGSAGG [r11_419_TrMRF] | 2.56 ± 0.066 kcal/mol | 1.33 ± 0.12 kcal/mol
SAGGSAIKITKVEYEPNPDGWREIHFKATPGDPDFLDEIAEALPPDNIEPTEVDEKGYYEIRIPRPSAGGSA [r15_386_TrROS] |  | -0.291 ± 0.17 kcal/mol
SAGGSAGGSAAVEVPESAIVERDPSTGRLLVPAPSGVPIVVTVDPSDPARVSTSDPAAAAAGSAGGSAGGSA [r18_418_JUSTAS] | 1.65 ± 0.032 kcal/mol | 1.12 ± 0.091 kcal/mol
SAGGSAGGSAGVIVPAGSVVRVRFPDGDEVEIPVANPFLEIEDAGDVEVEVTPGLRDSPVSAGGSAGGSAGG [r11_43_TrMRF] | 1.13 ± 0.045 kcal/mol | 0.567 ± 0.12 kcal/mol
SAGGSAPEVTVEPDPTTGRVTVRVRVPDPETGEWFELVAPTDPAGNVAGVDLHPDGNAATAVALLPSAGGSA [r15_557_TrMRF] | 1.12 ± 0.023 kcal/mol | 0.54 ± 0.059 kcal/mol
GTMQKNGVPIKPIKPIIIEYPVSPNLPNGLPLSPEEVEKLLEEIAEKIKKEKPVKKVTFTKDGDKYILKVES [r1_369_JUSTAS] | 1.23 ± 0.18 kcal/mol | 0.533 ± 0.22 kcal/mol
SAGGSNIFIMIKFRPPDKKRTWTIPIRVRHPNGKPKPIPAEELKDILEELPGYPVKNVDVMPPDDISAGGSA [r2_192_TrROS] | 3.25 ± 0.23 kcal/mol | 3.8 ± 0.56 kcal/mol
SAGGSAGGSDEVTYDPVAGTFTVRLRLPGGERTFRVPSLADLRAWLEREGLPWEDLPIERVEPSAGGSAGGS [r12_834_TrMRF] | 2.35 ± 0.1 kcal/mol | 1.73 ± 0.12 kcal/mol
SAGGGSKTITTTLPETGLTVTTTLEVPSADISIGDLVVTETPLPDATRRTTVTTSLGVTNNATATPVASAGG [r13_515_JUSTAS] | 1.05 ± 0.021 kcal/mol | 0.509 ± 0.062 kcal/mol
SGRVLEVRRRLAFFDPETGRLLGEVEVVVRVPPSATPEEVPRIARERELEAAERLLRPAPPRRLENGELLSA [r9_454_TrMRF] | 1.56 ± 0.12 kcal/mol | 1.1 ± 0.16 kcal/mol
SAGGSSISVPPGGYVPGSVPNPGGTSRVVITRPGTGEVETYPLGDAVPEVTDDEPVSSTVVETPPSEESAGG [r13_173_JUSTAS] | 2 ± 0.083 kcal/mol | 1.37 ± 0.078 kcal/mol

Looked up one by one from the list above (2):
Sequence | folding stability dG unfold [1] | folding stability dG unfold [2]
SAGGSAPEVTVEPDPTTGRVTVRVRVPDPETGEWFELVAPTDPAGNVAGVDLHPDGNAATAVALLPSAGGSA [r15_557_TrMRF] | 1.12 ± 0.023 kcal/mol | 0.54 ± 0.059 kcal/mol
SMKTVELKIVIPGMTEEELKKLVEKLKELGNVEVTIEYDEETKEVVITVKVNVTPEQEEALKKALEEALKSA [r9_652_TrROS_Hall] | 2.22 ± 0.21 kcal/mol | 3.26 ± 0.63 kcal/mol
